Reference: article PMC7696395
No constants are given. Whether binding was seen depends on the method and setting. Binding seen in cells or lysates may run through a third protein. Some entries that bind do so weakly or less than the wild type.

Amino acid sequences for entries named in this document (tags omitted). Residues count along the entry.
UniProt Q63495, residues 23-402: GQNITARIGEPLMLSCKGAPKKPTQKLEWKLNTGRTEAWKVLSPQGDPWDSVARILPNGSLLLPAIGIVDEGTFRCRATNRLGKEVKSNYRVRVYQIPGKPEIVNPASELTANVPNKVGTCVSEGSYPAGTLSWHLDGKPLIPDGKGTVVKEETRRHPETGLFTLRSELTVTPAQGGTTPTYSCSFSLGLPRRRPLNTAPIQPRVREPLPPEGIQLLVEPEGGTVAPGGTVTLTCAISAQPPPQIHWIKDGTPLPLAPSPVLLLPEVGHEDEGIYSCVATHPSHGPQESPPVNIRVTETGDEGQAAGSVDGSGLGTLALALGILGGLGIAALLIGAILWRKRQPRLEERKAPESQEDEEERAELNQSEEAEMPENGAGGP

Biological target: receptor for advanced glycation end products (RAGE) (rat (endogenous in ASMC)) (UniProt Q63495)
Experiment: co-IP; 0.5 mg of ASMC cell lysate incubated overnight with RAGE antibody (ab216329) or caspase-8 antibody (#9746), protein A/G agarose beads, Western blot; cells treated for 24 h with vehicle (PBS), HG, AGEs, S100B or S100A6

B1: caspase-8 (enzyme, UniProt Q9JHX4 1-482)
chain: MDFHSCLYDIAERLGNEELAALKFLCLDHIPQKKQESINDVLVLFQRLQEEGMLEEDNLSFLKELLFHISRRDLLSRVLKSSPEEMVRELQVLGKAQVSAYRVMLFKLSEDMDKEDLKSFKFLLITEIPKCKLQDNSSLLDIFVEMEKRTILAENNLVTLKSICFRVNRSLLGRIDDYERSSTERRMSTEGGEELPVSVLDEVTIKMQDMWDSPGEQESESLNSDNVYQMKSKPRGYCLIFNNNNFSKAREDIPKLSNMRDRKGTNYDEEALSKTFKELHFEIVSFSDCTASQIHEVLVSYQSKDHKGKDCFICCILSHGDKGIVYGTDGKEASIYELTSYFTGSKCPSLAGKPKIFFIQACQGNNFQKAVPVPDETGLEQEHVLEEDSSSYKNYIPDEADFLLGMATVKNCVSYRDPTRGTWYIQSLCQSLRERCPRGEDILSILTGVNYDVSNKDNPRNMGKQMPQPIFTLRKKLFFPPN
  binding: binds
